Experimental findings from the supplement of paper PMC6411743 are described below.

Chains of the proteins cited; added tags and fusions are not shown. Lines headed by an entry give the natural chain unless they say otherwise; changes in a name come on top.
UniProt Q7KZN9: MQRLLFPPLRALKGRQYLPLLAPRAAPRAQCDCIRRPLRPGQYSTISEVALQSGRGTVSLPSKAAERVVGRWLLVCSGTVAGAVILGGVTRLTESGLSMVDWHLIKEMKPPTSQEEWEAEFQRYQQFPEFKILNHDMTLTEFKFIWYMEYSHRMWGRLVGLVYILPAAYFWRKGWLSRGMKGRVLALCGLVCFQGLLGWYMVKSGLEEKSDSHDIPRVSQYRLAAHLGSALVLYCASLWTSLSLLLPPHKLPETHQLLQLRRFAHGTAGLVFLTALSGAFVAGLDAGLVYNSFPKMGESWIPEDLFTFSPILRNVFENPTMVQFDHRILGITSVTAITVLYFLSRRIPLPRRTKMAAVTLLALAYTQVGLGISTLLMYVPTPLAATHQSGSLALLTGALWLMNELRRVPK
UniProt Q86UK7: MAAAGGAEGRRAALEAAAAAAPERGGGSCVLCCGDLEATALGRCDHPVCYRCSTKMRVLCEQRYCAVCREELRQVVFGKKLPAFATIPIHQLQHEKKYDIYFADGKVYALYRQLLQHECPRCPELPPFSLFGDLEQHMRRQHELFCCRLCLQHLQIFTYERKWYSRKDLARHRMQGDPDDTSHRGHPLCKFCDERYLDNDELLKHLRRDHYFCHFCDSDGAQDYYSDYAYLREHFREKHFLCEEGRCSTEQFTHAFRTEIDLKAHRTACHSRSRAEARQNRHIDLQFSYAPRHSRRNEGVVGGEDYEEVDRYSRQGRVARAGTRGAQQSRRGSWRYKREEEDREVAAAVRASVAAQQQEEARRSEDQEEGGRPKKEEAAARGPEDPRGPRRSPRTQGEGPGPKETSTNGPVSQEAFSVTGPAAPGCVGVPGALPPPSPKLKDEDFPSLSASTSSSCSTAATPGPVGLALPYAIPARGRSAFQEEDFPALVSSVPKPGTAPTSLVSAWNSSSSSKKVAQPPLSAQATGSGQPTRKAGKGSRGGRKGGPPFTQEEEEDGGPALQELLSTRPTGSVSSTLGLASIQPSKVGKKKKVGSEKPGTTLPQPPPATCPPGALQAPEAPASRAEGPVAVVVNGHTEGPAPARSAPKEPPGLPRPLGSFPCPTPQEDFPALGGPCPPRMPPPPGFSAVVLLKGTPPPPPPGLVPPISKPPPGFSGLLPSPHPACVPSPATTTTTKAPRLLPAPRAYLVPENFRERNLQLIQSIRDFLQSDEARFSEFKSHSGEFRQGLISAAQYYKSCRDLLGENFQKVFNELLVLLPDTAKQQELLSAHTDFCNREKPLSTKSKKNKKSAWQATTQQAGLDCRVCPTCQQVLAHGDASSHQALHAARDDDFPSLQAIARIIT
UniProt Q7L1V2: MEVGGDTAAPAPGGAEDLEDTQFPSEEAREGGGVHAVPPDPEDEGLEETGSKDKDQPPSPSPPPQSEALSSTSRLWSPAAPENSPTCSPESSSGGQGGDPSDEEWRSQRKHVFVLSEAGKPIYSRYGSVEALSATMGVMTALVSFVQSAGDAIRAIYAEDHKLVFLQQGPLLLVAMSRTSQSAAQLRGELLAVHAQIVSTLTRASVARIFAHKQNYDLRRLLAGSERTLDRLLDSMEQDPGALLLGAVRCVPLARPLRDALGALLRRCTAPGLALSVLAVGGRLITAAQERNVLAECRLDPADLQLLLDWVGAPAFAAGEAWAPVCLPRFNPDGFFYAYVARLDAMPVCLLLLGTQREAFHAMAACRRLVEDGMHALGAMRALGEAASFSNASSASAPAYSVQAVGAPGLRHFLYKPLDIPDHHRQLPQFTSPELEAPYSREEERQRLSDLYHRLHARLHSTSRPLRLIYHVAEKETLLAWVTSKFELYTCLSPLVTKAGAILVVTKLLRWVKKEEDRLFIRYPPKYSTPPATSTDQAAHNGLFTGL
UniProt Q6ZT12: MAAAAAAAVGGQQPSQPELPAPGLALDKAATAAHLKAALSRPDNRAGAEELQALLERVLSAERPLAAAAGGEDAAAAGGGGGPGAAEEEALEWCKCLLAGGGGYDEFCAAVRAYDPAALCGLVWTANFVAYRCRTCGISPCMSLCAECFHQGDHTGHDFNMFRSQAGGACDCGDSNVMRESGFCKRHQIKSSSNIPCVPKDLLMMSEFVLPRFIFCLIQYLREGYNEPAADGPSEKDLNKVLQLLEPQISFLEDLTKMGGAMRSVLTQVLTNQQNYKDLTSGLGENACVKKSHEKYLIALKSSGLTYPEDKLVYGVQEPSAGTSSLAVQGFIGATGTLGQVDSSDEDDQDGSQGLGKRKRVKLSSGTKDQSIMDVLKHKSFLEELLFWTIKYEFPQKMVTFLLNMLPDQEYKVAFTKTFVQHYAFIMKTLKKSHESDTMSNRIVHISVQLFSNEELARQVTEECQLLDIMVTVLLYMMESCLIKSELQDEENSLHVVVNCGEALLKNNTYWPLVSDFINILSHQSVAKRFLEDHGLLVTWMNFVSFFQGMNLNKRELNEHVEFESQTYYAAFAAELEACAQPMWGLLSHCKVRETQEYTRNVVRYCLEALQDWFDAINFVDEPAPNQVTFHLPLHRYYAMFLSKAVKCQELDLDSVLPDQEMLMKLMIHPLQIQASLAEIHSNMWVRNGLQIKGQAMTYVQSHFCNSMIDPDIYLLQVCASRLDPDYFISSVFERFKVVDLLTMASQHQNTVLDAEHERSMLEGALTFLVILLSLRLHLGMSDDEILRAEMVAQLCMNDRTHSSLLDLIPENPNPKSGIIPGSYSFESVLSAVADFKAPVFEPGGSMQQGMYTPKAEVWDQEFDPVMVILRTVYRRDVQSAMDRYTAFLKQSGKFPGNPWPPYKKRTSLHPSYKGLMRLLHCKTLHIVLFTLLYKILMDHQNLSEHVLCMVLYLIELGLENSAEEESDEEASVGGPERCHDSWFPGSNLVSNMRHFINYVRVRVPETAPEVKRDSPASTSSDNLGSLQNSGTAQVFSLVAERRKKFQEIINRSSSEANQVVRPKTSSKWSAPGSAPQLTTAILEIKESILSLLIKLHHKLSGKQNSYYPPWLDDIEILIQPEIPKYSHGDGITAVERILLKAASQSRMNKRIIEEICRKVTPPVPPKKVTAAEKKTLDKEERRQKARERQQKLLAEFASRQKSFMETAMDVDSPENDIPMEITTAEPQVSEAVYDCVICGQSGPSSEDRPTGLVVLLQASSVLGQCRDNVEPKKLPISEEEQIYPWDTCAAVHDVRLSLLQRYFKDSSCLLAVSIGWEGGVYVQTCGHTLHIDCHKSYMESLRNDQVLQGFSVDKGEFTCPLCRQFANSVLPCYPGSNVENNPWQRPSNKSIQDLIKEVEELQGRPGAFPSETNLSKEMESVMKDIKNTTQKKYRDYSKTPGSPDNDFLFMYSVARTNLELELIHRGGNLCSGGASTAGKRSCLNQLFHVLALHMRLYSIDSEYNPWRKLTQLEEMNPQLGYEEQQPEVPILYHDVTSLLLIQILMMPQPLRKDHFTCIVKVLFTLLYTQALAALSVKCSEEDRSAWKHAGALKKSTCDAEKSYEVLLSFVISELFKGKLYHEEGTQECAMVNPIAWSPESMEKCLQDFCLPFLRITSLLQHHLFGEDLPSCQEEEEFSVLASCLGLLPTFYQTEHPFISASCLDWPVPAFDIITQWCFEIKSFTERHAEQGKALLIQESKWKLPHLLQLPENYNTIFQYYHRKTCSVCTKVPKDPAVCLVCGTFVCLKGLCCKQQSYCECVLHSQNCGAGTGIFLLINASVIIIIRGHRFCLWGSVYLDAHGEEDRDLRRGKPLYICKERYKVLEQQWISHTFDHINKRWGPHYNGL
UniProt Q7Z4H3: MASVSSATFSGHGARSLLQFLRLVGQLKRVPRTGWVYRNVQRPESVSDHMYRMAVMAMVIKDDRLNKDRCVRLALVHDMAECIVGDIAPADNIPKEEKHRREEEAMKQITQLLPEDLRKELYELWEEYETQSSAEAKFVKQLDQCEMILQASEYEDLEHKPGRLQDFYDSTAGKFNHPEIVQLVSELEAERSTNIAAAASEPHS
UniProt Q6QNY1: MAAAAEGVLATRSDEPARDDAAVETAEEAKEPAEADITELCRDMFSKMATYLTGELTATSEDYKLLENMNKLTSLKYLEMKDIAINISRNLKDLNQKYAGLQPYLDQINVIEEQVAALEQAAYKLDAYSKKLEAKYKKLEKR
UniProt Q86V85: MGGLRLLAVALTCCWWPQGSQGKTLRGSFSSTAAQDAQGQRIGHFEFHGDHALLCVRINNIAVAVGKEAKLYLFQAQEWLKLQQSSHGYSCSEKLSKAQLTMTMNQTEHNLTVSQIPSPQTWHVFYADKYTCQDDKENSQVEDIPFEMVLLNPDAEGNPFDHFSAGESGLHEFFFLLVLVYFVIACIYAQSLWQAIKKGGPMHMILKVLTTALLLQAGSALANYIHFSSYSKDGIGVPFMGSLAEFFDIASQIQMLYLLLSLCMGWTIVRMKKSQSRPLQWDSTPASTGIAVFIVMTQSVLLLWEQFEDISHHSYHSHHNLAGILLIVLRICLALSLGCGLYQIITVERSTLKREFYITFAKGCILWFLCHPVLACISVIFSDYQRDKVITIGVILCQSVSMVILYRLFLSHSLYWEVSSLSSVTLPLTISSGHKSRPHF
UniProt Q7L8J4: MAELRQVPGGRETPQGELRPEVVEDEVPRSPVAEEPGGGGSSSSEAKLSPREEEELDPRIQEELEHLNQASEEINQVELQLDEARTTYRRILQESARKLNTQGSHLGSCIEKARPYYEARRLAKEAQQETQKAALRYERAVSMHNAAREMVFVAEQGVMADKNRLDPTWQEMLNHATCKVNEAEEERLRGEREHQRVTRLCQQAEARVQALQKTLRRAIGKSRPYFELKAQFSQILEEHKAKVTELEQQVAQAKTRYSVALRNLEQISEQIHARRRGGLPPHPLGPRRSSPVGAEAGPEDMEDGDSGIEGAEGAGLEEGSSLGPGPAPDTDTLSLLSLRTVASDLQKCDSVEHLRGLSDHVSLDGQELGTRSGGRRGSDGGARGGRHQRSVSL
UniProt Q7L5D6: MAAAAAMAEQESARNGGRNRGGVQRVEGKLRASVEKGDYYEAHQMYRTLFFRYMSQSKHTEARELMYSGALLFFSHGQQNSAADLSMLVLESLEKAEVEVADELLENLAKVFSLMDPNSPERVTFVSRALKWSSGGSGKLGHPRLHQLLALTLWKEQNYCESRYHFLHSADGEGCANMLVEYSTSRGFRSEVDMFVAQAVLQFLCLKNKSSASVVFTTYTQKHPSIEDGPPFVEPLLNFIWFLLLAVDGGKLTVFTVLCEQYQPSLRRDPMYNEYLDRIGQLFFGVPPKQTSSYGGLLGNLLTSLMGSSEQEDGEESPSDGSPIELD
UniProt Q86UA6: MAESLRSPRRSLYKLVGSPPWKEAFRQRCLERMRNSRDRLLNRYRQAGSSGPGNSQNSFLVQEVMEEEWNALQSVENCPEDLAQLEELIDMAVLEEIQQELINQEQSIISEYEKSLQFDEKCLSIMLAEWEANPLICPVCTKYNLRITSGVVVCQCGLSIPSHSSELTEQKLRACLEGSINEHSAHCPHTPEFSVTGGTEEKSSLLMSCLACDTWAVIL
UniProt Q6QNY0: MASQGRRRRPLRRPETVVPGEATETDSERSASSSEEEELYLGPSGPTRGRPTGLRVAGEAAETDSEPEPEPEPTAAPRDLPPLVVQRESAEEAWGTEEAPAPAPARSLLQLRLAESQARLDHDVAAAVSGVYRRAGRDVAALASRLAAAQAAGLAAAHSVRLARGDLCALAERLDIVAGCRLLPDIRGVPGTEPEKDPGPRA
UniProt Q7RTS9: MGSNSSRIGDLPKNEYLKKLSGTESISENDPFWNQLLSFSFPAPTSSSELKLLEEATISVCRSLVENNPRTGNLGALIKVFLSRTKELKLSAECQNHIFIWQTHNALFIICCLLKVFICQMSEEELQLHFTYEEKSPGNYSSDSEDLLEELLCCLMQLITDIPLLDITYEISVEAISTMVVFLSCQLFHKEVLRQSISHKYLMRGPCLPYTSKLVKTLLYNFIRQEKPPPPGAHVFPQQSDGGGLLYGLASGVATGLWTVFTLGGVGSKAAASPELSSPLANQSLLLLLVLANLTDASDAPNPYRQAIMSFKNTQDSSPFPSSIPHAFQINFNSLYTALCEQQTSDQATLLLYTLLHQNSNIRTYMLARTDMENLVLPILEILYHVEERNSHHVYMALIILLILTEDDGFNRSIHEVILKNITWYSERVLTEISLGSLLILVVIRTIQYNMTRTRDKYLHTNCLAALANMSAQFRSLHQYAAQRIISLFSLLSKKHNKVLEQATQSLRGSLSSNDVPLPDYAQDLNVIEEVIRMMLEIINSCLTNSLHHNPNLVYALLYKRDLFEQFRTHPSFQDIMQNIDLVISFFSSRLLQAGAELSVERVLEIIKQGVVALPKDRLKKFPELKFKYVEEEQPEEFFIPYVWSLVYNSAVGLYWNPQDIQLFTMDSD
UniProt Q86SZ2: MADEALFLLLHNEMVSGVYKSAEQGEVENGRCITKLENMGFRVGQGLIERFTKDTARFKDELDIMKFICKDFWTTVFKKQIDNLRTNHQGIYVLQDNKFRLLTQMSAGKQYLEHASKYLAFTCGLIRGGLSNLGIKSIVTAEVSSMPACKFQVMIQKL

± gives the standard deviation of the averaged measurements. The entries are a selection whose mix differs from that of the whole data set.

Compound in the first experiment: Nc1ncnc2c1ncn2[C@@H]1O[C@H](COP(=O)(O)OP(=O)(O)OP(=O)(O)O)[C@@H](O)[C@H]1O [adenosine triphosphate]
The experiment is described as follows: NP40-soluble protein abundance relative to vehicle (solubility fold change) (ratio); higher = more soluble protein in presence of ATP. The note with it: concentration: 1mM. In outline:
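Eight concentrations, 0.1 to 10 mM, were tested on Jurkat crude lysate for 10 min at room temperature and then 3 min at 37 °C, in three independent experiments. The lysate was solubilised with 0.8% NP40 and benzonase, ultracentrifuged, and the supernatant TMT-labelled for LC-MS/MS. Each value is the fold change against the detergent-processed vehicle in its own replicate, from vsn-normalised intensities.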
Consider UniProt Q86X76-2, for which the NP40-soluble protein abundance is 1.03 ± 0.12.
On the same count and under the same terms, in the case of UniProt Q7KZN9 and related entries it was 1.05 ± 0.32.
Same read-out and setting: in the case of UniProt Q86UK7 and related entries it was 1.05 ± 0.025; in that of UniProt Q7Z2Z2, 1 ± 0.03; in that of TTC33 (UniProt Q6PID6), 0.959 ± 0.057.
Still for that read-out and setting: in the case of UniProt Q6PI26 and related entries it was 1.02 ± 0.019; in that of UniProt Q7L1Q6, 0.928 ± 0.0094.
Take MON1B (UniProt Q7L1V2): the NP40-soluble protein abundance was determined as 0.855 ± 0.2.
In the case of UniProt Q6ZT12 and related entries, the NP40-soluble protein abundance is 1.02 ± 0.011.

Still in this experiment, the particulars now being: concentration: 2mM.
Consider CCDC25 (UniProt Q86WR0), for which the NP40-soluble protein abundance was determined as 0.953 ± 0.018.
Same read-out and setting: in the case of UniProt Q7Z6K3 and related entries it was 0.994 ± 0.027; in that of NUDT18 (UniProt Q6ZVK8), 0.976 ± 0.077; in that of HDDC2 (UniProt Q7Z4H3), 0.903 ± 0.075.
Still for that read-out and setting: in the case of BLOC1S2 (UniProt Q6QNY1) it was 1.08 ± 0.063; in that of GPR180 (UniProt Q86V85), 0.948 ± 0.016.
The same measure, in the same setting: in the case of UniProt Q7L8J4 and related entries it was 0.948 ± 0.014; in that of UniProt Q7Z7H8 and related entries, 1.02 ± 0.032.
UniProt Q7L5D6: the NP40-soluble protein abundance amounted to 0.925 ± 0.069.
Still for that read-out and setting: in the case of UniProt Q86VP1-2|B8ZZD4 it was 0.953 ± 0.016; in that of UniProt Q71RG4 and related entries, 0.968 ± 0.057; in that of UniProt Q7Z3K3 and related entries, 1.07 ± 0.034.
On the same count and under the same terms, in the case of HS2ST1 (UniProt Q7LGA3) it was 1.15 ± 0.015; in that of UniProt Q86UA6 and related entries, 1 ± 0.1.
On the same count and under the same terms, in the case of UniProt Q7Z7L7 it was 0.985 ± 0.049; in that of UniProt Q7Z2W9 and related entries, 0.965 ± 0.028; in that of HOMER1 (UniProt Q86YM7), 0.988 ± 0.013.
As for UniProt Q6UWP7 and related entries, the NP40-soluble protein abundance is 0.996 ± 0.05.
The same measure, in the same setting: in the case of BLOC1S3 (UniProt Q6QNY0) it was 0.972 ± 0.037; in that of ATAD2 (UniProt Q6PL18), 1.33 ± 0.088.
In the case of TMED4 (UniProt Q7Z7H5), the NP40-soluble protein abundance worked out at 0.977 ± 0.034.
The same measure, in the same setting: in the case of UniProt Q6PIF6 it was 1.01 ± 0.058; in that of UniProt Q7Z460-4, 1.08 ± 0.046.
The same measure, in the same setting: in the case of “UniProt Q6PJT7-3|Q6PJT7-5|Q6PJT7-9|Q6PJT7” it was 1.3 ± 0.04; in that of DYM (UniProt Q7RTS9), 0.952 ± 0.038.
As for TRAPPC6B (UniProt Q86SZ2), the NP40-soluble protein abundance came out at 0.972 ± 0.027.
Regarding UniProt Q86UW6 and related entries, the NP40-soluble protein abundance is 1.13 ± 0.018.
On the same count and under the same terms, in the case of UniProt Q86X76-2 it was 1 ± 0.1; in that of UniProt Q7KZN9 and related entries, 1.02 ± 0.24.
Consider UniProt Q86UK7 and related entries, for which the NP40-soluble protein abundance amounted to 1.06 ± 0.041.
In the case of UniProt Q7Z2Z2, the NP40-soluble protein abundance came to 0.99 ± 0.021.
The same measure, in the same setting: in the case of TTC33 (UniProt Q6PID6) it was 0.956 ± 0.012; in that of UniProt Q6PI26 and related entries, 1.05 ± 0.041; in that of UniProt Q7L1Q6, 0.942 ± 0.028.
With MON1B (UniProt Q7L1V2), the NP40-soluble protein abundance is 1.02 ± 0.089.
Still for that read-out and setting: in the case of UniProt Q6ZT12 and related entries it was 1.03 ± 0.071.

The same experiment, now with this note: concentration: 4mM.
Take CCDC25 (UniProt Q86WR0): the NP40-soluble protein abundance was found to be 0.9219 ± 0.0087.
The same measure, in the same setting: in the case of UniProt Q7Z6K3 and related entries it was 0.962 ± 0.047; in that of NUDT18 (UniProt Q6ZVK8), 0.98 ± 0.076.
The same measure, in the same setting: in the case of HDDC2 (UniProt Q7Z4H3) it was 0.904 ± 0.097; in that of BLOC1S2 (UniProt Q6QNY1), 1.01 ± 0.088; in that of GPR180 (UniProt Q86V85), 0.912 ± 0.045.
Regarding UniProt Q7L8J4 and related entries, the NP40-soluble protein abundance came out at 0.917 ± 0.067.
Still for that read-out and setting: in the case of UniProt Q7Z7H8 and related entries it was 0.973 ± 0.026; in that of UniProt Q7L5D6, 0.893 ± 0.021; in that of UniProt Q86VP1-2|B8ZZD4, 0.9748 ± 0.0033.
For the target UniProt Q71RG4 and related entries, the NP40-soluble protein abundance was 0.975 ± 0.018.
As for UniProt Q7Z3K3 and related entries, the NP40-soluble protein abundance is 1.1 ± 0.035.
The same measure, in the same setting: in the case of HS2ST1 (UniProt Q7LGA3) it was 1.22 ± 0.052; in that of UniProt Q86UA6 and related entries, 0.939 ± 0.12; in that of UniProt Q7Z7L7, 1.02 ± 0.045.
The same measure, in the same setting: in the case of UniProt Q7Z2W9 and related entries it was 0.979 ± 0.16; in that of HOMER1 (UniProt Q86YM7), 0.944 ± 0.054.
Still for that read-out and setting: in the case of UniProt Q6UWP7 and related entries it was 0.991 ± 0.081; in that of BLOC1S3 (UniProt Q6QNY0), 0.949 ± 0.053.
As for ATAD2 (UniProt Q6PL18), the NP40-soluble protein abundance was determined as 1.37 ± 0.11.
The same measure, in the same setting: in the case of TMED4 (UniProt Q7Z7H5) it was 0.926 ± 0.038; in that of UniProt Q6PIF6, 1.05 ± 0.056.
Same read-out and setting: in the case of UniProt Q7Z460-4 it was 1.1 ± 0.051.
Same read-out and setting: in the case of “UniProt Q6PJT7-3|Q6PJT7-5|Q6PJT7-9|Q6PJT7” it was 1.38 ± 0.038.
On to DYM (UniProt Q7RTS9), for which the NP40-soluble protein abundance stood at 1 ± 0.076.
Still for that read-out and setting: in the case of TRAPPC6B (UniProt Q86SZ2) it was 0.934 ± 0.053.
Still for that read-out and setting: in the case of UniProt Q86UW6 and related entries it was 1.118 ± 0.0056.
Still for that read-out and setting: in the case of UniProt Q86X76-2 it was 0.999 ± 0.072.
With UniProt Q7KZN9 and related entries, the NP40-soluble protein abundance turned out to be 1.02 ± 0.17.
Still for that read-out and setting: in the case of UniProt Q86UK7 and related entries it was 1.1 ± 0.041; in that of UniProt Q7Z2Z2, 0.965 ± 0.028.
Still for that read-out and setting: in the case of TTC33 (UniProt Q6PID6) it was 0.941 ± 0.017; in that of UniProt Q6PI26 and related entries, 0.997 ± 0.14; in that of UniProt Q7L1Q6, 0.898 ± 0.022.
The same measure, in the same setting: in the case of MON1B (UniProt Q7L1V2) it was 1.01 ± 0.068; in that of UniProt Q6ZT12 and related entries, 1.02 ± 0.064.

Still in this experiment, the particulars now being: concentration: 6mM.
CCDC25 (UniProt Q86WR0): the NP40-soluble protein abundance is 0.979 ± 0.033.
Still for that read-out and setting: in the case of UniProt Q7Z6K3 and related entries it was 0.973 ± 0.011; in that of NUDT18 (UniProt Q6ZVK8), 0.987 ± 0.17; in that of HDDC2 (UniProt Q7Z4H3), 0.877 ± 0.1.
In the case of BLOC1S2 (UniProt Q6QNY1), the NP40-soluble protein abundance was determined as 1.02 ± 0.2.
In the case of GPR180 (UniProt Q86V85), the NP40-soluble protein abundance is 0.905 ± 0.048.
Regarding UniProt Q7L8J4 and related entries, the NP40-soluble protein abundance was determined as 0.882 ± 0.042.
Turning to UniProt Q7Z7H8 and related entries, the NP40-soluble protein abundance was 0.95 ± 0.16.
As to UniProt Q7L5D6, the NP40-soluble protein abundance turned out to be 0.78 ± 0.095.
On the same count and under the same terms, in the case of UniProt Q86VP1-2|B8ZZD4 it was 0.9677 ± 0.0042; in that of UniProt Q71RG4 and related entries, 0.951 ± 0.046.
The same measure, in the same setting: in the case of UniProt Q7Z3K3 and related entries it was 1.12 ± 0.019; in that of HS2ST1 (UniProt Q7LGA3), 1.16 ± 0.094; in that of UniProt Q86UA6 and related entries, 1 ± 0.12.
Same read-out and setting: in the case of UniProt Q7Z7L7 it was 0.904 ± 0.026.
On to UniProt Q7Z2W9 and related entries, for which the NP40-soluble protein abundance stood at 0.829 ± 0.28.
Same read-out and setting: in the case of HOMER1 (UniProt Q86YM7) it was 1.02 ± 0.072; in that of UniProt Q6UWP7 and related entries, 0.94 ± 0.12; in that of BLOC1S3 (UniProt Q6QNY0), 0.937 ± 0.045.
On the same count and under the same terms, in the case of ATAD2 (UniProt Q6PL18) it was 1.37 ± 0.2; in that of TMED4 (UniProt Q7Z7H5), 0.963 ± 0.035.
On to UniProt Q6PIF6, for which the NP40-soluble protein abundance was 0.976 ± 0.037.
On the same count and under the same terms, in the case of UniProt Q7Z460-4 it was 1.09 ± 0.054; in that of “UniProt Q6PJT7-3|Q6PJT7-5|Q6PJT7-9|Q6PJT7”, 1.49 ± 0.02.
The same measure, in the same setting: in the case of DYM (UniProt Q7RTS9) it was 0.954 ± 0.037; in that of TRAPPC6B (UniProt Q86SZ2), 0.873 ± 0.034; in that of UniProt Q86UW6 and related entries, 1.14 ± 0.064.
On the same count and under the same terms, in the case of UniProt Q86X76-2 it was 0.925 ± 0.11; in that of UniProt Q7KZN9 and related entries, 0.98 ± 0.14.
Consider UniProt Q86UK7 and related entries, for which the NP40-soluble protein abundance is 1.09 ± 0.034.
Still for that read-out and setting: in the case of UniProt Q7Z2Z2 it was 0.953 ± 0.053.
On the same count and under the same terms, in the case of TTC33 (UniProt Q6PID6) it was 0.967 ± 0.024; in that of UniProt Q6PI26 and related entries, 1.05 ± 0.057; in that of UniProt Q7L1Q6, 0.931 ± 0.051.
Turning to MON1B (UniProt Q7L1V2), the NP40-soluble protein abundance worked out at 0.889 ± 0.25.
Still for that read-out and setting: in the case of UniProt Q6ZT12 and related entries it was 0.992 ± 0.041.
